According to US7144982B2, “Polypeptides with therapeutic activity and methods of use” (University of Minnesota, priority 2000, dated 2006):
Part of at least one peptide drawing is inferred or uncertain, most often the ends. Ends that are not written are not given here.

Tested on: strains of S. aureus
Test: Bactericidal assay, S. aureus strains stated together
Assay type: cell-based
Details: against Gram-positives

KLFKRHLKWKII-NH2 [SC-4, KLFKRHLKWKII]
LD50s in words: sub-micromolar range
